Results reported in publication PMC7065907.
No constants are given. Whether binding was seen depends on the method and setting. In cells and extracts the contact can be indirect. Some binding calls cover weakened binding; strength is not graded here.

Protein sequences, listed by entry. Tags and fused reporters are not part of them.
UniProt Q9Y5T5: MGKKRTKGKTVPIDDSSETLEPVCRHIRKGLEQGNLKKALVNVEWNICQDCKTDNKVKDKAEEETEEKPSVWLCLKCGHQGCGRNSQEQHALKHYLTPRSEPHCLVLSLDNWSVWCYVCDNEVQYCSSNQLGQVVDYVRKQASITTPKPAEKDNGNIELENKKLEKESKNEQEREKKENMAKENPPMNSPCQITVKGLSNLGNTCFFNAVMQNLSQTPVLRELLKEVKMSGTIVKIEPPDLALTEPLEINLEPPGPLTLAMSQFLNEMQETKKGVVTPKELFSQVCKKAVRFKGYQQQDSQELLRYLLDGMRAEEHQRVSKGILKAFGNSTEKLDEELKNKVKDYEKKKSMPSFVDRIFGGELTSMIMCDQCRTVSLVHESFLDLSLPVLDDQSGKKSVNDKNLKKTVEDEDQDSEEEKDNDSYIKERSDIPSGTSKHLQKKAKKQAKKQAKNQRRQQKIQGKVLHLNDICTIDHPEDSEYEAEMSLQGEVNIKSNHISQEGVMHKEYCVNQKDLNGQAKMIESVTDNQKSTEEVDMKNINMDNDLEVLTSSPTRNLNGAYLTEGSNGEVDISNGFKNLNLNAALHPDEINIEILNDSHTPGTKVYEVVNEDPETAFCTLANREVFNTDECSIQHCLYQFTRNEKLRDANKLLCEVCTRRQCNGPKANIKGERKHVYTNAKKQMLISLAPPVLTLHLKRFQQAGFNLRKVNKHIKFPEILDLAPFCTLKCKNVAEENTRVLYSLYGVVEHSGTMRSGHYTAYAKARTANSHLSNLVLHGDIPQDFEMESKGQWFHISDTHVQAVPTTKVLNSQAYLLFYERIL

Assays:
Assay in all cases: pull-down; StrepTactin beads with lysates of tetracycline-induced HEK293 FlpIn T-REx cells expressing the tagged bait; 10 mM Tris pH 7.5, 100 mM KCl, 2 mM MgCl2, 0.5% NP-40, 1 mM DTT; 30 min at 4°C; eluates immunoblotted; in Figure 4E cells treated with control or USP16 siRNA for 72 hr
ENP1-StHA (human) = molecular target: T1, ENP1-StHA (human) (UniProt Q13895)
T1 sequence: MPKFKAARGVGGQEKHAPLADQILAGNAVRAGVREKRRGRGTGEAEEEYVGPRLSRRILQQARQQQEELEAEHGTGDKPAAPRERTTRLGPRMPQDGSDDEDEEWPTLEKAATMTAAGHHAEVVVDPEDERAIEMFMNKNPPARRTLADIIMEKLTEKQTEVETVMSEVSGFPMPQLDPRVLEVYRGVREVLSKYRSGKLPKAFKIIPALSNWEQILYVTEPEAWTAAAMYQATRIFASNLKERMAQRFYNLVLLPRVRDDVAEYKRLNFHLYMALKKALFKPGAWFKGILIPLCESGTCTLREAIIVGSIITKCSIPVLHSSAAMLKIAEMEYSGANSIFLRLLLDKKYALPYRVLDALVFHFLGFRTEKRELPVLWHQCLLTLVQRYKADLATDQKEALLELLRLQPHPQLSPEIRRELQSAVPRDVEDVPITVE

HASt-LTV1 (human) = molecular target: T2, HASt-LTV1 (human) (UniProt Q96GA3)
T2 sequence: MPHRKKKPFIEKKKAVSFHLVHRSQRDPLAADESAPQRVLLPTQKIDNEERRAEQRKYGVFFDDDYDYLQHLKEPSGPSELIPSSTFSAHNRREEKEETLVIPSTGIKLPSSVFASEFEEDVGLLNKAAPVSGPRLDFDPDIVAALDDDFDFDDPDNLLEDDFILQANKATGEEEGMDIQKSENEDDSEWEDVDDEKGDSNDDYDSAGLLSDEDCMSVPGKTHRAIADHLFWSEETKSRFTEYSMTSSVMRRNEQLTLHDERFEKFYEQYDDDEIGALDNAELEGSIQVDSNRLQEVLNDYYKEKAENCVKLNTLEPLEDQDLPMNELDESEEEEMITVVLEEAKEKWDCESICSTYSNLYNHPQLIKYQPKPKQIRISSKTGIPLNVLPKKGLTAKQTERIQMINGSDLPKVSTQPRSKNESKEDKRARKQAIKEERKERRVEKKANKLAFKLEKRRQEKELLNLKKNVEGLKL

RIOK1(kd)-StHA (human) = molecular target: T3, RIOK1(kd)-StHA (human) (UniProt Q9BRS2)
T3 sequence: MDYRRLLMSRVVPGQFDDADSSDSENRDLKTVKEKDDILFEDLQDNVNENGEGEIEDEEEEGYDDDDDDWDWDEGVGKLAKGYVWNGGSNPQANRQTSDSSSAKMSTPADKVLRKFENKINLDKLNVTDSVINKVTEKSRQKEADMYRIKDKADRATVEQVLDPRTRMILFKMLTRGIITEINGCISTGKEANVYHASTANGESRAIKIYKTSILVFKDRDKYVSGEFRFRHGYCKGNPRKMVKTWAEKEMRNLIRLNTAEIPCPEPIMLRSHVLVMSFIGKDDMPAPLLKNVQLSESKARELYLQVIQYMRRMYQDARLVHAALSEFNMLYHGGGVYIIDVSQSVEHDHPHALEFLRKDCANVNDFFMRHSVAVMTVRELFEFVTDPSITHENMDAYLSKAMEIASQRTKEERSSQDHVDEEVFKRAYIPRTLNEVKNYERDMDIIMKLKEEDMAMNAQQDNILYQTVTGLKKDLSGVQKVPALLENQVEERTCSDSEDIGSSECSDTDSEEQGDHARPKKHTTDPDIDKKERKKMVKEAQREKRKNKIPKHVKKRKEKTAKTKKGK

binding (ENP1-StHA (human)): binds
binding (HASt-LTV1 (human)): binds
binding (RIOK1(kd)-StHA (human)): binds
Substance: USP16 (from UniProt Q9Y5T5 1-823) (enzyme)
